# Data published in patent US11183645B2, “Organic thin film and method for manufacturing organic thin film, organic electroluminescence element, display device, illumination device, organic thin film solar cell, thin film transistor, and coating composition” (NIPPON HOSO KYOKAI, priority 2015, dated 2021).
# Test: physchem
smiles,measurement,value
"C1CN=C2NCCCN2C1 [TBD, 1,5,7-triazabicyclo[4.4.0]deca-5-en]",pKa,15
